The source of these data is PMC9988210.

Results are given in words; binding and its absence hold for the method and conditions named. In cells and extracts the contact can be indirect. Some entries that bind do so weakly or less than the wild type. Where a sequence is shown, tags or fusion partners need not be part of it.

The target in assay [1] is T1, FLAG-tagged Cdc37 (UniProt Q16543).
T1 sequence: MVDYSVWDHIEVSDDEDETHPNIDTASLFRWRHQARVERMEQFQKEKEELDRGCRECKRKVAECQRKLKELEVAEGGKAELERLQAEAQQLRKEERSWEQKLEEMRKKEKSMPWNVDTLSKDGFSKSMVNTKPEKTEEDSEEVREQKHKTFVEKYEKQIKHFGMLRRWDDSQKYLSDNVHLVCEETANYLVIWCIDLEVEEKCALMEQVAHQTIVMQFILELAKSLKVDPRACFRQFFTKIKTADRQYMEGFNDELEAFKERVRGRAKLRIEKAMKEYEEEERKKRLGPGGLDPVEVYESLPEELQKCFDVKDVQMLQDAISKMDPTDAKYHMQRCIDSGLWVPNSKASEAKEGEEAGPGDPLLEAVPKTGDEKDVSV
The assay is described as follows: co-IP; FLAG-tagged HSP90, Cdc37 or FKBP5 as bait on anti-FLAG resin, co-expressed with PSKH2-Strep in HEK-293T, eluted with SDS-PAGE sample buffer, immunoblot. On the technique in general: Immunoblotting shows a protein as a band on a membrane.

In assay [2] the target is T2, FLAG-tagged FKBP5 (UniProt Q13451).
T2 sequence: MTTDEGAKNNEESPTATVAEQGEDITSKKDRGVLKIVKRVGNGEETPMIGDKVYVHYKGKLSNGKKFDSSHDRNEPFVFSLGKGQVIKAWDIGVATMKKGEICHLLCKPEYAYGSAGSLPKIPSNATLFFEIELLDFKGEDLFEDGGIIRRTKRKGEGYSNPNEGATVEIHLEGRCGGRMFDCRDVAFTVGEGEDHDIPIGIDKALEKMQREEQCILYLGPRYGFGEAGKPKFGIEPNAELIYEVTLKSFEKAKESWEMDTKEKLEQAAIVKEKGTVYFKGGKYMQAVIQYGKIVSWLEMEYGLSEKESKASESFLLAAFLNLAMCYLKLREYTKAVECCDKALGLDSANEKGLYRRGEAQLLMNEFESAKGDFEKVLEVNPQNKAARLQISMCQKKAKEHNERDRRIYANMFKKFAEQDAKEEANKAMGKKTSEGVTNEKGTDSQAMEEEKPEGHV
The assay is described as above.

Assay [3] concerns the target T3, C-terminal STREP-tagged PSKH2 (human) (UniProt Q96QS6).
T3 sequence: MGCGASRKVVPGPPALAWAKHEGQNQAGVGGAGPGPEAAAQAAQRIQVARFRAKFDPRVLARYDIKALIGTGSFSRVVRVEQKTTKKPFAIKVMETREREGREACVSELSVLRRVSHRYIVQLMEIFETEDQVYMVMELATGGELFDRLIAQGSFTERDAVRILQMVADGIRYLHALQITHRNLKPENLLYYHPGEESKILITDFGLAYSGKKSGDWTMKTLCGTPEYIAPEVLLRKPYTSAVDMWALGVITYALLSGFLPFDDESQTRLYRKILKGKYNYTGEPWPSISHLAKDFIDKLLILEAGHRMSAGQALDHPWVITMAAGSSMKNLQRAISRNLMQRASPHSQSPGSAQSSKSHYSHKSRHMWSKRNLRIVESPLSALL
The assay is described as follows: co-IP; Strep-TactinXT affinity precipitation of N- or C-terminal Strep-tagged PSKH2 from HEK-293T lysate (50 mM Tris-HCl pH 7.4, 150 mM NaCl, 0.1% Triton X-100, 1% DDM), immunoblot of endogenous partners.

The target of assay [4] is T4, N-terminal STREP-tagged PSKH2 (human) (UniProt Q96QS6).
T4 sequence: T3 sequence
The description is as above.

B1: C-terminal STREP-tagged PSKH2 (protein, UniProt Q96QS6 1-385)
chain: T3 sequence
Consider B1, for which the binding entry in assay [1] and in assay [2] was “binds” in each case.

B2: Cdc37 (protein, UniProt Q16543 1-378)
chain: T1 sequence
Consider B2, for which the binding entry in assay [3] and in assay [4] was “binds” throughout.

B3: Geranylgeranyl transferase type-2 subunit beta (RABGGTB) (protein, UniProt P53611 1-331)
chain: MGTPQKDVIIKSDAPDTLLLEKHADYIASYGSKKDDYEYCMSEYLRMSGIYWGLTVMDLMGQLHRMNREEILAFIKSCQHECGGISASIGHDPHLLYTLSAVQILTLYDSINVIDVNKVVEYVKGLQKEDGSFAGDIWGEIDTRFSFCAVATLALLGKLDAINVEKAIEFVLSCMNFDGGFGCRPGSESHAGQIYCCTGFLAITSQLHQVNSDLLGWWLCERQLPSGGLNGRPEKLPDVCYSWWVLASLKIIGRLHWIDREKLRNFILACQDEETGGFADRPGDMVDPFHTLFGIAGLSLLGEEQIKPVNPVFCMPEEVLQRVNVQPELVS
Consider B3, for which the binding entry in assay [3] is on record as “binds”.

B4: FKBP5 (protein, UniProt Q13451 1-457)
chain: T2 sequence
For the molecule B4, the binding result in assay [3] and in assay [4] was “binds” throughout.
